In PubChem BioAssay AID328 (DTP/NCI, 2004):
The list is a part of this screen's results and no random one: it gathers tests that were run many times, whatever their T/C, doses with no T/C, and many T/C values between a quarter and a half above the control. Further doses and runs are listed elsewhere. T/C is the treated group as % of the vehicle group. Some entries give survivors of the animals treated and no T/C: the source holds a T/C of zero for them, seemingly a mark for toxic or unscored doses. Some doses without a T/C left all or most animals alive at the check, yet need not have been tolerated: the source hardly ever lists a survival T/C far under the control, and the zero likely stands for such cases as well. Survivors were counted at the toxicity check, usually on the fifth day, unless a day is given; later deaths do not show. Schedule codes are those of the source, read here as Q, the interval in days (D) or hours (H), X, the number of doses. Some structures stand for samples that the source files as different forms (salt, stereo form or complex); doses refer to the form tested. Some doses were run more than once; the results are listed from low to high. Where survival is the endpoint, the PubChem record calls one and a half times the control and up active, and a quarter to a half above the control has no call in these data; cut-offs in other NCI protocols can differ. Some T/C values carry the count of animals alive at the toxicity check (mostly the fifth day); without a count, all were alive then.

Tested on: BDF1 mice, P388 leukemia ip, median survival T/C
Assay: NCI In Vivo Anticancer Drug Screen. Data for tumor model P388 Leukemia (intraperitoneal) in B6D2F1 (BDF1) mice
Conditions: higher T/C = longer survival
Procedure, shortened: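 Steps: implant the tumour, treat one group with compound and another with vehicle, record survival, then divide treated by control.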

[1] = T/C endpoint: median survival time, dose: 50.0 mg/kg/injection, schedule: Q01DX009 (ip), vehicle: saline with Tween-80
[2] = T/C endpoint: median survival time, dose: 200.0 mg/kg/injection, schedule: Q01DX009 (ip), vehicle: saline with Tween-80
[3] = T/C endpoint: median survival time, dose: 100.0 mg/kg/injection, schedule: Q01DX009 (ip), vehicle: saline with Tween-80
[4] = T/C endpoint: median survival time, dose: 100.0 mg/kg/injection, schedule: Q01DX009 (ip), vehicle: saline
[5] = T/C endpoint: median survival time, dose: 100.0 mg/kg/injection, schedule: Q04DX003 (ip), vehicle: saline
[6] = T/C endpoint: median survival time, dose: 200.0 mg/kg/injection, schedule: Q01DX009 (ip), vehicle: saline
[7] = T/C endpoint: median survival time, dose: 400.0 mg/kg/injection, schedule: Q01DX009 (ip), vehicle: saline
[8] = T/C endpoint: median survival time, dose: 400.0 mg/kg/injection, schedule: Q04DX003 (ip), vehicle: saline
[9] = T/C endpoint: median survival time, dose: 25.0 mg/kg/injection, schedule: Q01DX009 (ip), vehicle: Klucel (hydroxypropylcellulose) (HPC)
[10] = T/C endpoint: median survival time, dose: 200.0 mg/kg/injection, schedule: Q04DX003 (ip), vehicle: saline
[11] = T/C endpoint: median survival time, dose: 150.0 mg/kg/injection, schedule: Q04DX003 (ip), vehicle: saline
[12] = T/C endpoint: median survival time, dose: 100.0 mg/kg/injection, schedule: Q04DX003 (ip), vehicle: saline with Tween-80
[13] = T/C endpoint: median survival time, dose: 200.0 mg/kg/injection, schedule: Q01DX010 (ip), vehicle: saline
[14] = T/C endpoint: median survival time, dose: 150.0 mg/kg/injection, schedule: Q01DX009 (ip), vehicle: saline
[15] = T/C endpoint: median survival time, dose: 100.0 mg/kg/injection, schedule: Q01DX009 (ip), vehicle: Klucel (hydroxypropylcellulose) (HPC)

**Q.** O=CNc1ccc(/C=C\c2ccnc3ccccc23)cc1 was tested. Which T/C (T/C endpoint: median survival time, dose: 12.5 mg/kg/injection, schedule: Q01DX009 (ip), vehicle: saline with Tween-80) did it give?
**A.** 133 % of control

**Q.** And the survivor count [1]?
**A.** 5 of 6

**Q.** CCCCOCNc1ncccn1 was tested. Which T/C [2] did it give?
**A.** 130 % of control

**Q.** CSC(=S)NN=C1CCCCC1 was tested. Which survivor count [1] did it give?
**A.** 1 of 6

**Q.** What about the survivor count [3] of the same compound?
**A.** 0 of 6

**Q.** And the survivor count [2]?
**A.** 0 of 6

**Q.** How did the survivor count (T/C endpoint: median survival time, dose: 400.0 mg/kg/injection, schedule: Q01DX009 (ip), vehicle: Klucel (hydroxypropylcellulose) (HPC)) turn out when CC(=O)OCCC/C(=C\c1ccc2ccccc2c1)[N+](=O)[O-] was run?
**A.** 6 of 6

**Q.** How did the T/C (T/C endpoint: median survival time, dose: 35.0 mg/kg/injection, schedule: Q01DX009 (ip), vehicle: saline) turn out when C=C1C(=O)O[C@@H]2C[C@@H](C)[C@@H]3[C@@H](OC4OC(COC(C)=O)C(O)C(O)C4O)CC(=O)[C@@]3(C)C[C@H]12 (some centres undefined) was run?
**A.** 138 % of control

**Q.** With C=CCSc1nc(N)nc2c1ncn2C1CC(O)C(CO)O1 (centres undefined) as the compound, how does the T/C [4] read?
**A.** 125 % of control [5 of 6 alive]

**Q.** What about the survivor count [5] of the same compound?
**A.** 6 of 6

**Q.** And the survivor count [6]?
**A.** 6 of 6

**Q.** And the survivor count (T/C endpoint: median survival time, dose: 400.0 mg/kg/injection, schedule: Q01DX009 (ip), vehicle: saline with Tween-80)?
**A.** 5 of 6

**Q.** What about the survivor count [7] of the same compound?
**A.** 5 of 6

**Q.** What about the T/C [8] of the same compound?
**A.** 131 % of control

**Q.** What about the T/C (T/C endpoint: median survival time, dose: 600.0 mg/kg/injection, schedule: Q04DX003 (ip), vehicle: saline) of the same compound?
**A.** 140 % of control

**Q.** Which survivor count [9] does the source give for CC(C)C1C(=O)N2CCCC2C2(O)OC(NC(=O)C3C=C4c5cccc6[nH]cc(c56)CC4N(C)C3)(C(C)C)C(=O)N12 (centres undefined) here?
**A.** 6 of 6

**Q.** What about the T/C [5] of the same compound?
**A.** 125 % of control

**Q.** What about the survivor count [6] of the same compound?
**A.** 5 of 7

**Q.** What about the survivor count [7] of the same compound?
**A.** 1 of 7

**Q.** O=C(O)COc1ccc(-c2ccc(Br)cc2)cc1 was tested. Which survivor count [3] did it give?
**A.** 6 of 6

**Q.** CC(=O)OCc1cc2cc(O)ccc2nc1C was tested. Which survivor count (T/C endpoint: median survival time, dose: 25.0 mg/kg/injection, schedule: Q04DX003 (ip), vehicle: saline) did it give?
**A.** 6 of 6

**Q.** What about the survivor count (T/C endpoint: median survival time, dose: 50.0 mg/kg/injection, schedule: Q04DX003 (ip), vehicle: saline) of the same compound?
**A.** 6 of 6

**Q.** What about the survivor count [5] of the same compound?
**A.** 6 of 6

**Q.** And the T/C [10]?
**A.** 133 % of control

**Q.** For O=C1CC(SC(=S)C2CCCC2=O)C(=O)O1 (centres undefined), which survivor count [3] is on record?
**A.** 4 of 6

**Q.** What about the survivor count [2] of the same compound?
**A.** 0 of 6

**Q.** For COc1ccc(/C=C/[N+](=O)[O-])cc1O, which survivor count [11] is on record?
**A.** 4 of 6

**Q.** What about the survivor count [10] of the same compound?
**A.** 4 of 6

**Q.** And the survivor count [8]?
**A.** 0 of 6

**Q.** Which T/C (T/C endpoint: median survival time, dose: 6.25 mg/kg/injection, schedule: Q04DX003 (ip), vehicle: saline with Tween-80) does the source give for CCC1CCCCN1C(=S)N/N=C(\C)c1ccccn1 (centres undefined) here?
**A.** 125 % of control

**Q.** What about the T/C (T/C endpoint: median survival time, dose: 25.0 mg/kg/injection, schedule: Q04DX003 (ip), vehicle: saline with Tween-80) of the same compound?
**A.** 133 % of control

**Q.** What about the T/C (T/C endpoint: median survival time, dose: 50.0 mg/kg/injection, schedule: Q04DX003 (ip), vehicle: saline with Tween-80) of the same compound?
**A.** 125 % of control

**Q.** And the survivor count [12]?
**A.** 0 of 6

**Q.** With CCC(c1ccc2cc(OC)ccc2c1)C(C(=O)O)C(=O)O (centres undefined) as the compound, how does the survivor count (T/C endpoint: median survival time, dose: 100.0 mg/kg/injection, schedule: Q04DX003 (ip), vehicle: Klucel (hydroxypropylcellulose) (HPC)) read?
**A.** 6 of 6

**Q.** And the survivor count (T/C endpoint: median survival time, dose: 200.0 mg/kg/injection, schedule: Q04DX003 (ip), vehicle: Klucel (hydroxypropylcellulose) (HPC))?
**A.** 6 of 6

**Q.** O=c1[nH]cc(Br)c2sccc12 was tested. Which survivor count (T/C endpoint: median survival time, dose: 335.0 mg/kg/injection, schedule: Q01DX009 (ip), vehicle: saline) did it give?
**A.** 4 of 6

**Q.** How did the survivor count (T/C endpoint: median survival time, dose: 100.0 mg/kg/injection, schedule: Q01DX001 (ip), vehicle: Klucel (hydroxypropylcellulose) (HPC)) turn out when CC[N+](CC)(CC)CC.N#C/C([SH2+])=C(/[SH2+])C#N.N#C/C([SH2+])=C(/[SH2+])C#N.[Cu+2] was run?
**A.** 0 of 6

**Q.** What about the survivor count (T/C endpoint: median survival time, dose: 200.0 mg/kg/injection, schedule: Q01DX001 (ip), vehicle: Klucel (hydroxypropylcellulose) (HPC)) of the same compound?
**A.** 0 of 6

**Q.** And the survivor count (T/C endpoint: median survival time, dose: 400.0 mg/kg/injection, schedule: Q01DX001 (ip), vehicle: Klucel (hydroxypropylcellulose) (HPC))?
**A.** 0 of 6

**Q.** For NC12CC3CC(CC(C3)C1)C2, which survivor count [13] is on record?
**A.** 3 of 6

**Q.** Which results are given for CC(C)(O)CCC(=O)C(C)(O)C1C(O)CC2(C)C3CC=C4C(CC(O)C(=O)C4(C)C)C3(C)C(=O)CC12C (centres undefined)?
**A.** T/C (T/C endpoint: mean survival time, dose: 4.0 mg/kg/injection, schedule: Q01DX010 (ip), vehicle: carboxymethylcellulose (CMC)): 135 % of control [5 of 6 alive]; survivor count (T/C endpoint: mean survival time, dose: 8.0 mg/kg/injection, schedule: Q01DX010 (ip), vehicle: carboxymethylcellulose (CMC)): 1 of 6; survivor count (T/C endpoint: median survival time, dose: 8.0 mg/kg/injection, schedule: Q01DX010 (ip), vehicle: carboxymethylcellulose (CMC)): 3 of 6

**Q.** How did the survivor count (T/C endpoint: median survival time, dose: 12.5 mg/kg/injection, schedule: Q01DX009 (ip), vehicle: Klucel (hydroxypropylcellulose) (HPC)) turn out when [CH3][Hg][O]C(C)=O was run?
**A.** 0 of 6

**Q.** And the survivor count [9]?
**A.** 0 of 6

**Q.** Which T/C [5] does the source give for NC1(CO)COC(c2ccccc2)OC1 (centres undefined) here?
**A.** 127 % of control

**Q.** And the survivor count [14]?
**A.** 3 of 6

**Q.** What about the survivor count [11] of the same compound?
**A.** 3 of 6

**Q.** What about the survivor count [10] of the same compound?
**A.** 1 of 6 and 4 of 6

**Q.** How did the survivor count [4] turn out when CCCCc1ccc(C(=O)O)nc1 was run?
**A.** 3 of 6

**Q.** Which results are given for O=C1C(CO)=C[C@@H](O)[C@H]2O[C@@H]12?
**A.** T/C (T/C endpoint: median survival time, dose: 3.1 mg/kg/injection, schedule: Q01DX001 (ip), vehicle: saline): 135 % of control; T/C (T/C endpoint: median survival time, dose: 48.0 mg/kg/injection, schedule: Q01DX010 (ip), vehicle: saline): 138 % of control; survivor count (T/C endpoint: median survival time, dose: 50.0 mg/kg/injection, schedule: Q01DX010 (ip), vehicle: saline): 1 of 6; survivor count (T/C endpoint: median survival time, dose: 100.0 mg/kg/injection, schedule: Q01DX010 (ip), vehicle: saline): 0 of 6; survivor count [13]: 0 of 6; survivor count (T/C endpoint: median survival time, dose: 400.0 mg/kg/injection, schedule: Q01DX010 (ip), vehicle: saline): 0 of 6

**Q.** For Cc1cc(N)on1, which survivor count [7] is on record?
**A.** 6 of 6

**Q.** With COC(=O)NC1C(C)C=CC(C)C1I (centres undefined) as the compound, how does the survivor count [12] read?
**A.** 6 of 6

**Q.** Which T/C [15] does the source give for O=C1OC(c2ccccc2)(c2ccccc2)c2ccccc21 here?
**A.** 136 % of control

**Q.** And the survivor count [15]?
**A.** 6 of 6

**Q.** O=C1CCCN1.O=C1CCCN1.[Br][Co][Br] was tested. Which T/C (T/C endpoint: median survival time, dose: 67.0 mg/kg/injection, schedule: Q01DX009 (ip), vehicle: saline) did it give?
**A.** 127 % of control

**Q.** And the T/C [4]?
**A.** 130 % of control

**Q.** What about the survivor count [14] of the same compound?
**A.** 0 of 6 and 3 of 6

**Q.** And the survivor count [10]?
**A.** 4 of 6
